Chains of the proteins cited; added tags and fusions are not shown. Residues count along the entry.
UniProt Q5T2D3: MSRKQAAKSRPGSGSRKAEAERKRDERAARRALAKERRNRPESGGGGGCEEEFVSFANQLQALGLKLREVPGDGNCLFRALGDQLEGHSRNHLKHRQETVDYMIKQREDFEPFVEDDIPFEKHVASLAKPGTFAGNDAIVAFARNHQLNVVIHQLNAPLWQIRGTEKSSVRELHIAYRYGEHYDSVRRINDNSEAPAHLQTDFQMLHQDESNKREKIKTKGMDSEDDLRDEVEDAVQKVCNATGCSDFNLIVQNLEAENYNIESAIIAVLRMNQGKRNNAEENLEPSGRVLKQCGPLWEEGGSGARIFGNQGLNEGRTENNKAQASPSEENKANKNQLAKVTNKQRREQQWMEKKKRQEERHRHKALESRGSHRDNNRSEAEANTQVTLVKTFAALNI
UniProt P11021, residues 19-654: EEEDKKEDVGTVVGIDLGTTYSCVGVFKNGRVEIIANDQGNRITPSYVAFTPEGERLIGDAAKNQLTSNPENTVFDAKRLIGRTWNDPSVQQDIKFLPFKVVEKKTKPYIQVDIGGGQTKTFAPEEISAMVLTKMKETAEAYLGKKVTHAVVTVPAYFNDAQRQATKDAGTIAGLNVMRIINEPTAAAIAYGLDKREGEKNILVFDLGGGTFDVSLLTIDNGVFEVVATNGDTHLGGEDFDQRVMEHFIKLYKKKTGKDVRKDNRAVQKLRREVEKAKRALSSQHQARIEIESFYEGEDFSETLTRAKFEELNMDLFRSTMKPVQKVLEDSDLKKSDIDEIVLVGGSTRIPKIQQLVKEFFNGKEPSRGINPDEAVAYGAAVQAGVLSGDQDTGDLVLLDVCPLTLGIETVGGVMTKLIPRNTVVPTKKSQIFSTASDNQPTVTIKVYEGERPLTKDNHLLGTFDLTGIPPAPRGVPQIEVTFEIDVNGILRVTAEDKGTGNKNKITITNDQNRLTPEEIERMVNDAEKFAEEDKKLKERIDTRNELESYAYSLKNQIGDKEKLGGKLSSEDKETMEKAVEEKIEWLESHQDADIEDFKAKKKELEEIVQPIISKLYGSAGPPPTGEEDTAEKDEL
UniProt Q14258: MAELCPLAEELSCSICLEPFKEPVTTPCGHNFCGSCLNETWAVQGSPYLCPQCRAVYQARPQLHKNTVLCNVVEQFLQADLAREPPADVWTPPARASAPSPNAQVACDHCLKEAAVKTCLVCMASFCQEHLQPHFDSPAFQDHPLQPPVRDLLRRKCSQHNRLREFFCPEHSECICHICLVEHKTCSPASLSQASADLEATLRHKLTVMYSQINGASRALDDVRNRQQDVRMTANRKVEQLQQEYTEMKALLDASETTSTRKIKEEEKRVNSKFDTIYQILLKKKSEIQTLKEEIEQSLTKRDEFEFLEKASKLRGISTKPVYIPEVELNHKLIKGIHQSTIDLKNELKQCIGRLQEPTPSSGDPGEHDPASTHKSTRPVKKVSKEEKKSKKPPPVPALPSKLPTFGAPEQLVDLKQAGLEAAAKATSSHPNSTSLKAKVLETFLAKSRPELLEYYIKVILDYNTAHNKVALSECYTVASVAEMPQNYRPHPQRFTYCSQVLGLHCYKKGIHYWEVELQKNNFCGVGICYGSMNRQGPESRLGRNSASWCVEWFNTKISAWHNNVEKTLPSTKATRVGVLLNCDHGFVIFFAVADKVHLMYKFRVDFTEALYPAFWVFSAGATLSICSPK
UniProt P67809: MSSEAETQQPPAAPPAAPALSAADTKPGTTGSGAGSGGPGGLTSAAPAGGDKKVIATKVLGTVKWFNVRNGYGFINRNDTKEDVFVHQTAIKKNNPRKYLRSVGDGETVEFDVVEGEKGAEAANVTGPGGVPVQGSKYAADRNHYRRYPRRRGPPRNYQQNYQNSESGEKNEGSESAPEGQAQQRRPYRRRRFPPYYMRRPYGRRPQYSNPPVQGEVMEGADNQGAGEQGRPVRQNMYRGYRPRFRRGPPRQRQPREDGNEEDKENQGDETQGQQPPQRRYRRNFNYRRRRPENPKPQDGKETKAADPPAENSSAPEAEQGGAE

In article PMC6606649:

What follows are substances tested against OTUD3 (bait of the mass spectrometry analysis) (human) (UniProt Q5T2D3) (assay: affinity purification with mass spectrometry; OTUD3 immunoprecipitated with Protein A-G agarose from HEK293T cells; IP buffer 50 mM Tris-HCl pH 8.0, 100 mM NaCl, 1 mM EDTA, 1% Nonidet P40; in-gel digestion, LC-MS/MS).

Row | Substance | binding
1 | GRP78 in HEK293T lysate (from UniProt P11021 19-654) | binds
2 | Trim25 (in HEK293T lysate) (from UniProt Q14258 1-630) | binds
3 | YB1 (in HEK293T lysate) (from UniProt P67809 1-324) | binds

These are yes or no findings as the source states them, for the method shown. In cells and extracts the contact can be indirect. Here binding means that the protein was enriched with, or labelled near, the bait; the list need not be complete.
